Data as given in PubChem BioAssay AID652243 (Drosophila RNAi Screening Center, 2013)

Purpose: 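Fly genes required for human androgen receptor driven transcription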 (primary screen)
System: Drosophila S2R+ cells
Reagents: long dsRNA against Drosophila genes
Duration: 72 h (48 h, then 24 h hormone)
Challenge: synthetic androgen R1881 at 10 nM for 24 h
Measured: 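Per-well raw luminescence of the androgen-driven firefly reporter and of the Renilla control, two replicates each, without normalisation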
Reading the numbers: firefly reporter light: higher = more light from androgen-responsive reporter; Renilla control light: higher = more constitutive control signal (cell number, transfection)
Hit rule: 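Hit when the log firefly-to-Renilla ratio dropped or increased by a fixed fold versus the mean of GFP or LacZ controls across duplicate plates; lowering cut given as 1.5 and as 3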
Meaning of the calls: active = hit: reporter lowered or raised; inactive = no hit
The deposit covers about 24,000 reagents; shown is a random part of those that have a named target and a result. Over the whole deposit, 246 (1%) were called active. 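Plates not normalised; calls are printed but the firefly/Renilla ratio behind them is not deposited; fold cut for lowering reported inconsistently.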 Raw values are not corrected between plates. The numbers tell different reagents against one gene apart. A plus sign joins genes that one reagent is predicted to hit. The record does not give: the amount of reagent.

The first 4 entries, ahead of the listing:
Gene,dsRNA no.,"firefly reporter light, replicate 1","firefly reporter light, replicate 2","Renilla control light, replicate 1","Renilla control light, replicate 2",Outcome
sti (GeneID 39429),1,2.27e5,2.06e5,1.47e6,1.46e6,active
sti (GeneID 39429),2,2.35e5,1.86e5,1.90e6,1.42e6,inactive
sti (GeneID 39429),3,,,,,inactive
CG15239 (GeneID 31343),1,2.94e5,3.29e5,3.49e6,2.91e6,inactive

Results, from the first entry:
Gene,dsRNA no.,"firefly reporter light, replicate 1","firefly reporter light, replicate 2","Renilla control light, replicate 1","Renilla control light, replicate 2",Outcome
sti (GeneID 39429),1,2.27e5,2.06e5,1.47e6,1.46e6,active
sti (GeneID 39429),2,2.35e5,1.86e5,1.90e6,1.42e6,inactive
sti (GeneID 39429),3,,,,,inactive
CG15239 (GeneID 31343),1,2.94e5,3.29e5,3.49e6,2.91e6,inactive
CG15239 (GeneID 31343),2,9.81e5,8.39e5,1.52e6,1.29e6,inactive
CG12507 (GeneID 32580),1,2.90e5,2.51e5,4.02e6,4.04e6,inactive
Poc1 (GeneID 39502),1,6.61e5,5.79e5,1.17e6,1.63e6,inactive
Poc1 (GeneID 39502),2,3.36e5,5.45e5,8.61e5,1.73e6,inactive
S-Lap5 (GeneID 36515),1,65976,1.23e5,2.11e6,2.11e6,inactive
S-Lap5 (GeneID 36515),2,6.62e5,6.05e5,7.62e5,6.33e5,inactive
CR43087 + CR43086 + CG34002,1,1.12e6,9.27e5,9.26e5,7.97e5,inactive
RpS12 (GeneID 39480),1,7.57e5,3.94e5,1.10e6,1.21e6,inactive
CG9702 (GeneID 43634),1,1.89e5,1.47e5,2.68e6,2.63e6,inactive
CG11843 (GeneID 43432),1,2.59e5,2.31e5,2.63e6,3.38e6,inactive
obe (GeneID 41891),1,57796,1.45e5,5.83e5,8.04e5,inactive
CG8841 (GeneID 36336),1,1.05e6,1.12e6,9.98e5,1.29e6,inactive
CG34039 (GeneID 3885643),1,9.96e5,9.39e5,2.36e6,1.96e6,inactive
eIF4E4 (GeneID 38743),1,1.43e5,1.12e5,1.51e6,1.73e6,inactive
CG43155 (GeneID 32092),1,3.00e5,3.21e5,3.47e6,2.76e6,inactive
CG43155 (GeneID 32092),2,5.06e5,4.81e5,4.00e6,3.37e6,inactive
CG33666 + CG33669 + CG33668 + 3 more,1,1.00e6,9.97e5,1.77e6,1.61e6,inactive
CG34393 (GeneID 33534),1,61150,78418,1.08e6,1.06e6,inactive
CG34393 (GeneID 33534),2,1.06e5,1.17e5,1.03e6,7.57e5,inactive
CG34393 (GeneID 33534),3,8.38e5,7.97e5,8.14e5,6.29e5,inactive
CG34393 (GeneID 33534),4,5.74e5,5.15e5,1.06e6,6.07e5,inactive
CG5618 (GeneID 40241),1,41693,49962,3.52e5,4.27e5,inactive
CG5618 (GeneID 40241),2,5.26e5,4.85e5,9.20e5,8.92e5,inactive
mRpS28 (GeneID 37136),1,85392,1.72e5,1.57e6,1.91e6,inactive
CG10435 (GeneID 40948),1,18885,27062,3.03e5,4.43e5,inactive
CG10435 (GeneID 40948),2,8.61e5,1.02e6,9.71e5,1.07e6,inactive
btv (GeneID 35073),1,1.36e5,1.59e5,4.14e5,3.80e5,inactive
btv (GeneID 35073),2,1.79e5,1.65e5,2.54e6,2.40e6,inactive
Tlk (GeneID 318206),1,3.94e5,5.43e5,2.14e6,2.04e6,inactive
Tlk (GeneID 318206),2,2.88e5,5.38e5,5.05e5,8.12e5,inactive
Tlk (GeneID 318206),3,6.48e5,1.36e6,5.91e5,1.05e6,inactive
Tlk (GeneID 318206),4,6.80e5,7.54e5,1.21e6,1.35e6,inactive
yl (GeneID 32367),1,3.24e5,3.57e5,3.11e6,3.02e6,inactive
yl (GeneID 32367),2,5.09e5,4.90e5,9.56e5,1.25e6,inactive
CG32104 (GeneID 39413),1,3.21e5,2.94e5,2.61e6,2.81e6,inactive
CG32104 (GeneID 39413),2,3.27e5,2.81e5,2.65e6,2.81e6,inactive
